# Assay results published in paper PMC8126888 (RSC Medicinal Chemistry, 2020).
# System: primary peritoneal mouse macrophages (PMM)
# Conditions: PMM IC50 vs L. infantum IC50
row,Compound,SI (vs PMM)
1,COc1ccc(Cl)cc1S(=O)(=O)N(CC(=O)N1CCOCC1)Cc1ccccc1 [SCYX0001379806],1

# Same assay, conditions: selectivity index PMM vs L. infantum
row,Compound,SI (vs PMM)
1,COc1ccc(C(=O)N2CCN(C)CC2)cc1S(=O)(=O)N(Cc1ccc(F)cc1)Cc1ccc(F)cc1 [DNDI0003371173],59
2,COc1ccc(C(=O)NC2COC2)cc1S(=O)(=O)N(Cc1ccc(F)cc1)Cc1ccc(F)cc1 [DNDI0003371174],81
3,COc1ccc(C(=O)N(C)CCO)cc1S(=O)(=O)N(Cc1ccc(F)cc1)Cc1ccc(F)cc1 [DNDI0003371175],31
4,COc1ccc(C(=O)NCCO)cc1S(=O)(=O)N(Cc1ccc(F)cc1)Cc1ccc(F)cc1 [DNDI0003371176],25
5,COCCNC(=O)c1ccc(OC)c(S(=O)(=O)N(Cc2ccc(F)cc2)Cc2ccc(F)cc2)c1 [DNDI0003371177],62
6,COc1ccc(C(=O)N2CCOCC2)cc1S(=O)(=O)N(Cc1ccc(F)cc1)Cc1ccc(F)cc1 [DNDI0003371178],63
7,COc1ccc(CN(Cc2ccc(F)cc2)S(=O)(=O)c2cc(F)ccc2OCCN(C)C)cc1 [DNDI0003378485],2
8,O=S(=O)(c1cc(F)ccc1F)N(Cc1ccccc1)C(CO)c1ccc(F)cc1 (stereo not shown) [DNDI0003378486],2
9,COc1ccc(C#N)cc1S(=O)(=O)N(Cc1ccc(F)cc1)C1CCOCC1 [DNDI0003388084],1
10,COc1ccc(-c2nc(C)no2)cc1S(=O)(=O)N(Cc1ccc(F)cc1)Cc1ccc(F)cc1 [DNDI0003388085],11
11,COc1ccc(OC)c(S(=O)(=O)N(Cc2ccc(F)cc2)C2CCOCC2)c1 [DNDI0003388086],1
12,COc1ccc(CN(Cc2ccc(F)cc2)S(=O)(=O)c2cc(OC)ccc2OC)cc1 [DNDI0003388087],6
13,COc1ccc(OC)c(S(=O)(=O)N(Cc2ccc(F)cc2)Cc2ccc(C#N)cc2)c1 [DNDI0003388088],3
14,COc1ccc(Cl)cc1S(=O)(=O)N(Cc1ccccc1)C(CO)c1ccc(F)cc1 (stereo not shown) [DNDI0003388149],38
15,COc1ccc(CN(Cc2ccc(F)cc2)S(=O)(=O)c2cc(F)ccc2F)cc1 [DNDI0003388150],1
16,COc1ccc(CNC2COC2)cc1S(=O)(=O)N(Cc1ccc(F)cc1)Cc1ccc(F)cc1 [DNDI0003389115],36
17,COc1ccc(CN2CCC(F)(F)CC2)cc1S(=O)(=O)N(Cc1ccc(F)cc1)Cc1ccc(F)cc1 [DNDI0003389116],14
18,CN(C)c1ncccc1S(=O)(=O)N(Cc1ccc(F)cc1)Cc1ccc(F)cc1 [DNDI0003389117],11
19,COc1ccc(N2CCOCC2)cc1S(=O)(=O)N(Cc1ccc(F)cc1)Cc1ccc(F)cc1 [DNDI0003389118],200
20,O=S(=O)(c1cccnc1N1CCOCC1)N(Cc1ccc(F)cc1)Cc1ccc(F)cc1 [DNDI0003389119],23
21,O=S1(=O)c2cc(F)ccc2OCC(c2ccc(F)cc2)N1Cc1ccccc1 (stereo not shown) [DNDI0003389122],2
22,O=[N+]([O-])c1ccc(Cl)cc1S(=O)(=O)N(Cc1ccccc1)Cc1ccc(F)cc1 [DNDI0003389123],1
23,N#Cc1ccc(O)c(S(=O)(=O)N(Cc2ccc(F)cc2)Cc2ccc(F)cc2)c1 [DNDI0003389125],1
24,COc1ccc(C(=O)N2CCOCC2)cc1S(=O)(=O)N(C)Cc1ccc(F)cc1 [DNDI0003389126],1
25,COc1ccc(C(=O)N2CCOCC2)cc1S(=O)(=O)N(Cc1ccc(F)cc1)CC(C)C [DNDI0003389127],9

row,Compound,SI (vs PMM)
1,COc1ccc(C(=O)N2CCOCC2)cc1S(=O)(=O)N(Cc1ccc(F)cc1)Cc1ccccc1Cl [DNDI0003389128],46
2,COc1ccc(OC)c(S(=O)(=O)N(Cc2ccc(F)cc2)Cc2ccnn2C)c1 [DNDI0003389129],9
3,COc1ccc(Cl)cc1S(=O)(=O)N(Cc1ccccc1)CC(O)c1ccc(F)cc1 (stereo not shown) [DNDI0003389316],5
4,COc1ccccc1S(=O)(=O)N(Cc1ccccc1)CC(O)c1ccc(F)cc1 (stereo not shown) [DNDI0003389317],6
5,CNCCOc1ccc(F)cc1S(=O)(=O)N(Cc1ccc(F)cc1)Cc1ccc(F)cc1 [DNDI0003389318],3
6,COc1ccc(OC)c(S(=O)(=O)N(Cc2ccc(F)cc2)Cc2cnc(OC)nc2OC)c1 [DNDI0003389321],1
7,N#Cc1ccccc1S(=O)(=O)N(Cc1ccccc1)Cc1ccccc1 [DNDI0003389641],6
8,CS(=O)(=O)c1ccccc1S(=O)(=O)N(Cc1ccccc1)Cc1ccccc1 [DNDI0003389642],2
9,COc1ccc(S(=O)(=O)N2CCOCC2)cc1C(=O)N(Cc1ccc(F)cc1)Cc1ccc(F)cc1 [DNDI0003389643],4
10,COc1ccc(C(=O)N2CCOCC2)cc1S(=O)(=O)N(Cc1ccc(F)cc1)Cc1ccc(C(F)(F)F)nc1 [DNDI0003389644],37
11,COc1ccc(N2CCN(C)CC2)cc1S(=O)(=O)N(Cc1ccc(F)cc1)Cc1ccc(F)cc1 [DNDI0003389645],20
12,O=S(=O)(c1ccccn1)N(Cc1ccccc1)Cc1ccccc1 [DNDI0003389646],4
13,O=S(=O)(c1cc(N2CCOCC2)ccc1OC(F)F)N(Cc1ccc(F)cc1)Cc1ccc(F)cc1 [DNDI0003389647],91
14,COc1ccc(CN(Cc2ccc(F)cc2)S(=O)(=O)c2cc(F)ccc2OCC[N+](C)(C)CC(=O)O)cc1 [DNDI0003389931],1
15,COc1ccc(Cl)cc1S(=O)(=O)N(Cc1ccccc1)CC(N)c1ccc(F)cc1 (stereo not shown) [DNDI0003389932],5
16,COc1ccc(Cl)cc1S(=O)(=O)N(Cc1ccccc1)C(CO)CO [DNDI0003389933],1
17,CCN(Cc1ccc(F)cc1)S(=O)(=O)c1cc(C(=O)N2CCOCC2)ccc1OC [DNDI0003392124],3
18,COCCN(Cc1ccc(F)cc1)S(=O)(=O)c1cc(C(=O)N2CCOCC2)ccc1OC [DNDI0003392125],3
19,COCCN(Cc1ccccc1)S(=O)(=O)c1cc(C(=O)N2CCOCC2)ccc1OC [DNDI0003392126],1
20,COCCN(Cc1ccccc1)S(=O)(=O)c1cc(C(=O)N2CCNCC2)ccc1OC [DNDI0003392127],2
21,CNC(=O)c1ccc(OC)c(S(=O)(=O)N(CCOC)Cc2ccccc2)c1 [DNDI0003392128],2
22,COCCN(Cc1ccccc1)S(=O)(=O)c1cc(C(=O)NC2COC2)ccc1OC [DNDI0003392129],4
23,COCCN(Cc1ccccc1)S(=O)(=O)c1ccccc1OC(F)(F)F [DNDI0003392130],8
24,NS(=O)(=O)c1cc2c(cc1Cl)NCN(Cc1ccccc1)S2(=O)=O [DNDI0003392143],1
25,O=S(=O)(NCc1ccccc1)c1cc2c(cc1Cl)NCN(Cc1ccccc1)S2(=O)=O [DNDI0003392144],1

row,Compound,SI (vs PMM)
1,Nc1cc(Cl)c(S(N)(=O)=O)cc1S(=O)(=O)N(Cc1ccccc1)Cc1ccccc1 [DNDI0003392145],1
2,COc1ccc(Cl)cc1S(=O)(=O)N(Cc1ccccc1)C1COC(=O)OC1 [DNDI0003392146],4
3,CCCCC1Nc2cc(Cl)c(S(N)(=O)=O)cc2S(=O)(=O)N1Cc1ccccc1 (stereo not shown) [DNDI0003392147],9
4,CCCCOc1ccc(C(=O)N2CCOCC2)cc1S(=O)(=O)NCc1ccccc1 [DNDI0003407874],1
5,COc1ccc(C(=O)N2CCOCC2)cc1S(=O)(=O)N(Cc1ccccc1)CC(C)(C)C [DNDI0003407876],64
6,O=C(c1ccc(OCC2CCCO2)c(S(=O)(=O)NCc2ccccc2)c1)N1CCOCC1 (stereo not shown) [DNDI0003407877],1
7,COc1ccc(S(N)(=O)=O)cc1S(=O)(=O)NCc1ccccc1 [DNDI0003407892],1
8,COc1ccc(C(=O)N2CCOCC2)cc1S(=O)(=O)N(Cc1ccc(C(F)(F)F)nc1)C(C)c1ccc(F)cc1 (stereo not shown) [DNDI0003407905],27
9,COc1ccc(C(=O)N2CCOCC2)cc1S(=O)(=O)N(Cc1ccccc1)Cc1cnc(C(F)(F)F)nc1 [DNDI0003425509],15
10,COCCOCN1CNc2cc(OC)c(S(=O)(=O)N(Cc3ccccc3)Cc3ccccc3)cc2S1(=O)=O [DNDI0003425511],98
11,O=S1(=O)NCNc2cc(Cl)c(S(=O)(=O)N(Cc3ccccc3)Cc3ccccc3)cc21 [DNDI0003425512],25
12,COc1cc2c(cc1S(=O)(=O)N(Cc1ccccc1)Cc1ccccc1)S(=O)(=O)NCN2 [DNDI0003425513],25
13,COCCOCN(Cc1ccccc1)S(=O)(=O)c1cc(OC)ccc1OC [DNDI0003425514],10
14,COc1ccc(S(C)(=O)=O)cc1S(=O)(=O)N(Cc1ccccc1)CC(C)(C)C [DNDI0003425524],24
15,COc1ccc(C#N)cc1S(=O)(=O)N(Cc1ccccc1)Cc1cnc(C(F)(F)F)nc1 [DNDI0003425527],16
16,COc1ccc(S(C)(=O)=O)cc1S(=O)(=O)N(Cc1ccccc1)Cc1cc(C(F)(F)F)nn1C [DNDI0003578374],5
17,COc1ccc(C#N)cc1S(=O)(=O)N(Cc1ccc(C(F)(F)F)nc1)Cc1ccc(C(F)(F)F)nc1 [DNDI0003578377],2
18,O=S1(=O)c2ccccc2[C@H](O)[C@@H](Cc2ccccc2)N1Cc1ccccc1 [DNDI0003578378],7
19,O=S1(=O)c2ccccc2[C@H](O)[C@H](Cc2ccccc2)N1Cc1ccccc1 [DNDI0003578379],5
20,COCCN(Cc1ccccc1)S(=O)(=O)c1c(OC)ccc(Cl)c1[S+](C)[O-] (stereo not shown) [DNDI0003578380],2
21,COCCN(Cc1ccccc1)S(=O)(=O)c1c(OC)ccc(Cl)c1S(C)(=O)=O [DNDI0003578381],1
22,COc1ccc([S+](C)[O-])cc1S(=O)(=O)N(Cc1ccccc1)Cc1ccccc1 (stereo not shown) [DNDI0003578382],109
23,C[S+]([O-])c1c(Cl)ccc2c1S(=O)(=O)N(Cc1ccccc1)CCO2 (stereo not shown) [DNDI0003578383],1
24,CCCN(Cc1ccc(F)cc1)S(=O)(=O)c1cc([S+](C)[O-])ccc1OC (stereo not shown) [DNDI0003578384],6
25,COc1ccc(S(N)(=O)=O)cc1S(=O)(=O)N(Cc1ccccc1)Cc1ccccc1 [DNDI0003578385],113
